Data on 22 compounds can be found in PubChem BioAssay AID256 (DTP/NCI, 2004).

The list does not hold the whole screen: it gathers tests that were run many times, whatever their T/C, doses with no T/C, and many T/C values between a quarter and a half above the control. Other doses and runs of a compound stand elsewhere. T/C gives the treated animals as a percentage of the vehicle group. Some doses have a count of surviving animals in place of a T/C: the source files T/C as zero there, which appears to mark a toxic dose or a test without result, not a measured value. Some survivor counts are full or nearly so, which does not show that the dose was tolerated: survival well below the control is almost never listed, so the zero probably covers shortened survival too. Counts of survivors are from the toxicity check (mostly the fifth day) where no day follows; animals may have died later. Schedule codes are those of the source, read here as Q, the interval in days (D) or hours (H), X, the number of doses. Some doses were run more than once; their values stand side by side, smallest first. For survival time, the PubChem record calls one and a half times the control and up active, and a quarter to a half above the control has no call in these data; cut-offs in other NCI protocols can differ.

In this assay the test system is CD2F1 mice, L1210 leukemia ip, survival T/C. Put plainly: NCI In Vivo Anticancer Drug Screen. Data for tumor model L1210 Leukemia (intraperitoneal) in CD2F1 (CDF1) mice. The conditions noted are these: higher T/C = longer survival. The essentials:
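Mice carrying a transplanted tumor received test compound or vehicle alone. The value is the measurement in the treated group divided by that in the vehicle-treated control group.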

[1] abbreviates: T/C endpoint: mean survival time, dose: 400.0 mg/kg/injection, schedule: Q01DX009 (ip), vehicle: saline with Tween-80.
The mark [2] stands for this setting: T/C endpoint: mean survival time, dose: 400.0 mg/kg/injection, schedule: Q04DX002 (ip), vehicle: saline.
[3] abbreviates: T/C endpoint: mean survival time, dose: 300.0 mg/kg/injection, schedule: Q01DX001 (ip), vehicle: saline.
[4] abbreviates: T/C endpoint: mean survival time, dose: 400.0 mg/kg/injection, schedule: Q01DX001 (ip), vehicle: saline with Tween-80.

Consider `CCC/C=C/C=C/C(=O)OC1/C(=C/C(=O)OC)CC2CC(C(C)O)OC(=O)CC(O)CC3CC(OC(C)=O)C(C)(C)C(O)(CC4C/C(=C/C(=O)OC)CC(/C=C/C(C)(C)C1(O)O2)O4)O3` (centres undefined), for which the T/C by setting is: (T/C endpoint: median survival time, dose: 37.5 micrograms/kg/injection, schedule: Q01DX009 (ip), vehicle: saline + alcohol) 134 % of control; (T/C endpoint: median survival time, dose: 75.0 micrograms/kg/injection, schedule: Q01DX009 (ip), vehicle: saline + alcohol) 140 and 142 % of control. Also, the survivor count by setting is: (T/C endpoint: median survival time, dose: 150.0 micrograms/kg/injection, schedule: Q01DX009 (ip), vehicle: saline + alcohol) 2 of 5; (T/C endpoint: median survival time, dose: 300.0 micrograms/kg/injection, schedule: Q01DX009 (ip), vehicle: saline + alcohol) 0 of 6.
Regarding `O=C(CCCCCCCCC(=O)OO)OO` (tested in a mixture with another compound), the survivor count (T/C endpoint: mean survival time, dose: 200.0 mg/kg/injection, schedule: Q01DX009 (ip), vehicle: saline with Tween-80) is listed as 1 of 6 and the survivor count under setting [1] was 0 of 6.
`CCCC(=O)OCc1cc(=O)n(C)c2c3c4c(cc12)c(C)cc(=O)n4CO3`: under “T/C endpoint: mean survival time, dose: 50.0 mg/kg/injection, schedule: Q01DX009 (ip), vehicle: Klucel (hydroxypropylcellulose) (HPC)”, the T/C is 145 % of control. For the same compound, the survivor count (T/C endpoint: mean survival time, dose: 100.0 mg/kg/injection, schedule: Q01DX009 (ip), vehicle: Klucel (hydroxypropylcellulose) (HPC)) was 6 of 6.
As for `CCOC(=O)c1c(C)[nH]c(C)cc1=O`, the survivor count under setting [2] was 0 of 3.
`CCOC(=O)N(C)N=NC`: the T/C by setting is: (T/C endpoint: median survival time, dose: 15.0 mg/kg/injection, schedule: Q01DX005 (ip), vehicle: saline) 133 % of control; (T/C endpoint: median survival time, dose: 18.0 mg/kg/injection, schedule: Q01DX005 (ip), vehicle: saline) 134 % of control; (T/C endpoint: median survival time, dose: 30.0 mg/kg/injection, schedule: Q01DX005 (ip), vehicle: saline) 142 and 144 % of control. Moreover, for the setting “T/C endpoint: median survival time, dose: 83.33 mg/kg/injection, schedule: Q01DX005 (ip), vehicle: saline”, the survivor count is recorded as 0 of 6.
For `CC[C@H](C)c1occ2c(O)c(C(=O)O)c(=O)cc-2c1C`, the survivor count (T/C endpoint: mean survival time, dose: 400.0 mg/kg/injection, schedule: Q01DX001 (ip), vehicle: saline) is on record as 2 of 6.
Consider `CCCC1CCC(=C2C(=O)CCC2=O)O1` (centres undefined), for which, where the note is “T/C endpoint: median survival time, dose: 400.0 mg/kg/injection, schedule: Q01DX009 (ip), vehicle: saline with Tween-80”, the survivor count is on record as 0 of 6.
With `OCCNCc1ccc(OCc2ccccc2)c(OCc2ccccc2)c1`, the survivor count reads like this: (T/C endpoint: median survival time, dose: 25.0 mg/kg/injection, schedule: Q04DX003 (ip), vehicle: saline with Tween-80) 3 of 3; (T/C endpoint: median survival time, dose: 200.0 mg/kg/injection, schedule: Q04DX003 (ip), vehicle: saline with Tween-80) 0 of 3.
For `C=CCN(CC=C)P(=O)(N1CC1C)N1CC1C` (centres undefined), the T/C runs as follows: (T/C endpoint: mean survival time, dose: 1.8 mg/kg/injection, schedule: Q01DX009 (ip), vehicle: saline) 139 % of control; (T/C endpoint: mean survival time, dose: 3.0 mg/kg/injection, schedule: Q01DX009 (ip), vehicle: saline) 131 % of control; (T/C endpoint: mean survival time, dose: 5.0 mg/kg/injection, schedule: Q01DX001 (ip), vehicle: saline) 131 % of control; (T/C endpoint: mean survival time, dose: 9.5 mg/kg/injection, schedule: Q01DX001 (ip), vehicle: saline) 126 % of control; (T/C endpoint: mean survival time, dose: 10.0 mg/kg/injection, schedule: Q01DX001 (ip), vehicle: saline) 140 % of control; (T/C endpoint: mean survival time, dose: 19.0 mg/kg/injection, schedule: Q01DX001 (ip), vehicle: saline) 137 % of control. Further, the survivor count is, setting by setting: (T/C endpoint: mean survival time, dose: 5.0 mg/kg/injection, schedule: Q01DX009 (ip), vehicle: saline) 5 of 6; (T/C endpoint: mean survival time, dose: 38.0 mg/kg/injection, schedule: Q01DX001 (ip), vehicle: saline) 6 of 6; (T/C endpoint: mean survival time, dose: 75.0 mg/kg/injection, schedule: Q01DX001 (ip), vehicle: saline) 3 of 6; (T/C endpoint: mean survival time, dose: 150.0 mg/kg/injection, schedule: Q01DX001 (ip), vehicle: saline) 6 of 6; under setting [3], 2 of 6.
Regarding `CC(=O)c1ccco1`, for the setting “T/C endpoint: mean survival time, dose: 100.0 mg/kg/injection, schedule: Q04DX003 (ip), vehicle: saline with Tween-80”, the survivor count is 0 of 6.
Consider `Nc1ncnc2[nH]ncc12`, for which the survivor count (T/C endpoint: median survival time, dose: 24.0 mg/kg/injection, schedule: Q01DX009 (ip), vehicle: saline) is 5 of 6 and 6 of 6.
As for `CCCCCCCCCCOc1ccc(OCCCCCCCCC)cc1`, the survivor count under setting [4] was 6 of 6.
With `CN(C)C1c2ccccc2-c2ccc(F)cc21` (centres undefined), the survivor count reads like this: (T/C endpoint: mean survival time, dose: 200.0 mg/kg/injection, schedule: Q01DX001 (ip), vehicle: carboxymethylcellulose (CMC)) 2 of 4; (T/C endpoint: mean survival time, dose: 400.0 mg/kg/injection, schedule: Q01DX001 (ip), vehicle: carboxymethylcellulose (CMC)) 1 of 4.
`CC(N)CC(C)N` (centres undefined): the survivor count under setting [2] was 0 of 3.
Consider `C=C1C(=O)OC2/C=C(\C)C3OC3/C=C(/C(=O)OC)C(O)C(OC(=O)C3(C)OC3C)C12` (centres undefined), for which the survivor count by setting is: (T/C endpoint: mean survival time, dose: 200.0 mg/kg/injection, schedule: Q01DX001 (ip), vehicle: saline with Tween-80) 0 of 6; under setting [4], 0 of 6.
For the compound `O=C(NN=C1CCCCC1)c1ccccc1`, the survivor count under setting [1] was 0 of 6.
As for `[CH3][Sn]([CH3])([Br])[CH2]CC[CH2][Sn]([CH3])([CH3])[Br]`, the survivor count is, setting by setting: (T/C endpoint: mean survival time, dose: 0.39 mg/kg/injection, schedule: Q01DX009 (ip), vehicle: saline) 0 of 3; (T/C endpoint: mean survival time, dose: 0.78 mg/kg/injection, schedule: Q01DX009 (ip), vehicle: saline) 0 of 3; (T/C endpoint: mean survival time, dose: 1.56 mg/kg/injection, schedule: Q01DX009 (ip), vehicle: saline) 0 of 3; (T/C endpoint: mean survival time, dose: 3.12 mg/kg/injection, schedule: Q01DX009 (ip), vehicle: saline) 0 of 3; (T/C endpoint: mean survival time, dose: 6.25 mg/kg/injection, schedule: Q01DX009 (ip), vehicle: saline) 0 of 3; (T/C endpoint: mean survival time, dose: 12.5 mg/kg/injection, schedule: Q01DX009 (ip), vehicle: saline) 0 of 3. In addition, the survivor count (T/C endpoint: mean survival time, dose: 25.0 mg/kg/injection, schedule: Q01DX009 (ip), vehicle: saline) is on record as 0 of 3.
Consider `CN1C(=O)CC(c2ccc(NC(=O)N(CCCl)N=O)cc2)C1=O` (centres undefined), for which the T/C was 136 % of control (T/C endpoint: mean survival time, dose: 3.13 mg/kg/injection, schedule: Q01DX001 (ip), vehicle: distilled water + Tween-80) and 143 % of control (T/C endpoint: mean survival time, dose: 6.25 mg/kg/injection, schedule: Q01DX001 (ip), vehicle: distilled water + Tween-80). Further, the survivor count is given as 6 of 6 (T/C endpoint: mean survival time, dose: 50.0 mg/kg/injection, schedule: Q01DX001 (ip), vehicle: distilled water + Tween-80); 2 of 6 (T/C endpoint: mean survival time, dose: 100.0 mg/kg/injection, schedule: Q01DX001 (ip), vehicle: distilled water + Tween-80); 0 of 6 (T/C endpoint: mean survival time, dose: 200.0 mg/kg/injection, schedule: Q01DX001 (ip), vehicle: distilled water + Tween-80).
As to `O=C(O)c1cccc2ccc(Br)cc12`, the survivor count (T/C endpoint: median survival time, dose: 400.0 mg/kg/injection, schedule: Q04DX002 (ip), vehicle: saline with Tween-80) is given as 2 of 3.
Turning to `O=C(Nc1ccccc1)c1ccc(Cl)c([N+](=O)[O-])c1`, the survivor count runs as follows: (T/C endpoint: mean survival time, dose: 200.0 mg/kg/injection, schedule: Q04DX003 (ip), vehicle: saline with Tween-80) 3 of 6; (T/C endpoint: mean survival time, dose: 400.0 mg/kg/injection, schedule: Q04DX003 (ip), vehicle: saline with Tween-80) 3 of 6.
Turning to `Cc1ccc(NC(=O)Nc2cccc(CNC(=O)COc3ccc(Cl)cc3C(=O)O)c2)cc1S(=O)(=O)F`, the survivor count (T/C endpoint: mean survival time, dose: 100.0 mg/kg/injection, schedule: Q01DX001 (ip), vehicle: saline with Tween-80) is recorded as 6 of 6.
For `CCN1CCC2OCOC2C1` (centres undefined), the survivor count under setting [3] is recorded as 0 of 6.
